Test results reported in article doi:10.1101/355438.
Substitutions are numbered along the chain they refer to. No constants are given. Whether binding was seen depends on the method and setting. Binding seen in cells or lysates may run through a third protein. Some results given as binding are weak or reduced against the parent protein; the word gives no strength. Tags and fused reporters may be left off the sequences shown.

Chains of the proteins cited; added tags and fusions are not shown. Lines headed by an entry give the natural chain unless they say otherwise; changes in a name come on top. Residues count along the entry.
UniProt A0A0B7P9G0, 21-834: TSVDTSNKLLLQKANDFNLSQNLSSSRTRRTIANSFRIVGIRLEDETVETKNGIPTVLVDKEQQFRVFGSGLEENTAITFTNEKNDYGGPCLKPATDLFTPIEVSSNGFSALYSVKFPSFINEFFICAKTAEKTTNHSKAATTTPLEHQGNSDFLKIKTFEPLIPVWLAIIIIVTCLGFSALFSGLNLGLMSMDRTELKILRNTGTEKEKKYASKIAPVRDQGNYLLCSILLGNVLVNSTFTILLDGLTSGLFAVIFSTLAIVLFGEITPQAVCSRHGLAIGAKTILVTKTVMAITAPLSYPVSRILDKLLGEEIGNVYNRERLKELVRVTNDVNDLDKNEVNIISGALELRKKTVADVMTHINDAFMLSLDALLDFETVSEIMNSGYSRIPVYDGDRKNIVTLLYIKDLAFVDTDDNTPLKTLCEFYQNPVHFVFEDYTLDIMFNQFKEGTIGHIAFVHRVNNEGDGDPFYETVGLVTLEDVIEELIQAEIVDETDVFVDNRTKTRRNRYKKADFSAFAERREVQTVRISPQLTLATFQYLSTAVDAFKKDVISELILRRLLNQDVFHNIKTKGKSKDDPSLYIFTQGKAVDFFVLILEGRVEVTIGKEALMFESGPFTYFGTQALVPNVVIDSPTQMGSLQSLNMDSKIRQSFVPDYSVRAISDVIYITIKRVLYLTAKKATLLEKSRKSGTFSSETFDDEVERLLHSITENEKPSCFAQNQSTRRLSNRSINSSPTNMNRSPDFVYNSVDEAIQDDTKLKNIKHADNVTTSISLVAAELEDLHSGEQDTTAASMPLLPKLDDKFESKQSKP

Tests used:
[1] = target: T1, HA-Prl-1 (wild type), Drosophila phosphatase of regenerating liver-1 (Drosophila) (UniProt O61722); experiment: co-IP
T1 sequence: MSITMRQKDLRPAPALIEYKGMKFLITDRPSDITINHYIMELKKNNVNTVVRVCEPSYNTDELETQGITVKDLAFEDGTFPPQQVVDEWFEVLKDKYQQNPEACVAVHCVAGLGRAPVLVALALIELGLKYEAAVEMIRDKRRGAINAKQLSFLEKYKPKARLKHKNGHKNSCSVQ

[2] = target: T2, GST-tagged Prl-1 (wild type) (Drosophila) (UniProt O61722); experiment: pull-down
T2 sequence: T1 sequence

[3] = target: T3, GST-tagged Prl-1-D77A/C109S (Drosophila) (UniProt O61722); experiment: pull-down
T3 sequence: T1 sequence with D77A, C109S

[4] = target: T4, GST-tagged Prl-1-C109S (Drosophila) (UniProt O61722); experiment: pull-down
T4 sequence: T1 sequence with C109S

| Substance | binding [1] | binding [2] | binding [3] | binding [4] |
| --- | --- | --- | --- | --- |
| Uex (endogenous, S2 cells) (from UniProt A0A0B7P9G0 21-834) | binds | – | – | – |
| Uex (endogenous, adult flies) (from UniProt A0A0B7P9G0 21-834) | – | binds | binds | binds |
